Source: publication PMC6647246

Biological target: BnaBZR1 (BnaAnng32010D), two-hybrid fusion (Brassica napus (rapeseed))
Test: two-hybrid; BnaARF8 (BnaC03g59640D) with BnaBZR1 (BnaAnng32010D); selective medium SD/-Trp-Leu-His-Ade; vectors not stated

## BnaARF8 (BnaC03g59640D), two-hybrid fusion in pGADT7 (from UniProt A0A078FIW5)
  binding: binds

No constants are given. Whether binding was seen depends on the method and setting. Binding can be weak; no strength is given.
